Source: patent US20210300939A1, “Single Molecule Compounds Providing Multi-Target Inhibition of BTK and Other Proteins and Methods of Use Thereof” (SignalRx Pharmaceuticals, Inc., priority 2018, published 2021)
At least one structure is not confirmed: it was looked up by name or label, or the drawing left a doubt.

System: pBTK(Y223) in JeKo and Mino cells
Experiment: Western blot, phosphorylation of BTK at Tyr223 in anti-IgM stimulated cells
Assay type: cell-based, human
Details: FIGS. 2A-2D

**Q.** With `C=CC(=O)N1CCC[C@@H](n2nc(-c3ccc(Oc4ccccc4)cc3)c3c(N)ncnc32)C1` [Ibrutinib] as the compound, how does the “Suppression of pBTK (Tyr223)” value read?
**A.** suppression of pBTK
